# From PubChem BioAssay AID1479146 (National Center for Advancing Translational Sciences (NCATS), 2020)
# Inconclusive results, whose numbers are uncertain, are shown with a selection of clear calls. Where the call is inconclusive, the potency comes from a doubtful curve fit. Active and inactive are the calls of the source. Calls follow the shape of the full dose curve.
# Assay: Confirmatory qHTS for Huh7 cytotoxicity: counterscreen for inhibitors of MERS-S pseudo-typed particle cell entry
# Details: viability; series mostly up to 57.1 µM
row,Structure (SMILES),Potency
1,Cc1nnc2n1-c1sc(CCc3ccc(CC(C)C)cc3)cc1C(c1ccccc1Cl)=NC2C (stereo not drawn),inactive
2,CN(C)[C@@H](CCOc1cccc2ccccc12)c1ccccc1,inactive
3,N#CC(c1ccc(Cl)cc1)c1c(Cl)cc(-n2ncc(=O)[nH]c2=O)cc1Cl (stereo not drawn),"inconclusive: 24.1 µM [cytotoxic, partial curve]"
4,CC[C@H](C)C(=O)O[C@H]1C[C@@H](C)C=C2C=C[C@H](C)[C@H](CC[C@@H]3C[C@@H](O)CC(=O)O3)[C@H]21,inactive
5,CCN1CCN(Cc2ccc(Nc3ncc(F)c(-c4cc(F)c5nc(C)n(C(C)C)c5c4)n3)nc2)CC1,active: 8.57 µM
6,COC(=O)C[C@](O)(CCCC(C)(C)O)C(=O)O[C@@H]1C(OC)=C[C@]23CCCN2CCc2cc4c(cc2[C@H]13)OCO4,"inconclusive: 1.71 µM [cytotoxic, full curve]"
7,COc1ccc2cc3[n+](cc2c1OC)CCc1cc2c(cc1-3)OCO2,"inconclusive: 19.2 µM [cytotoxic, partial curve]"
8,Cc1oncc1C(=O)Nc1ccc(C(F)(F)F)cc1,"inconclusive: 27.1 µM [cytotoxic, partial curve]"
9,CC(C)OC(=O)OCOP(=O)(CO[C@H](C)Cn1cnc2c(N)ncnc21)OCOC(=O)OC(C)C,inactive
10,CC(C)(C)NCC(O)COc1ccccc1C1CCCC1 (stereo not drawn),"inconclusive: 19.2 µM [cytotoxic, partial curve, poor fit]"
11,Nc1ccn([C@@H]2O[C@H](CO)[C@@H](O)C2(F)F)c(=O)n1,inactive
12,CN(C)CCOC(c1ccccc1)c1ccc(Br)cc1 (stereo not drawn),"inconclusive: 27.1 µM [cytotoxic, single point]"
13,CCCCCCCCCCCCOCCOCCOCCOCCOCCOCCOCCOCCOCCO,inactive
14,CCCCCCCCCCCC[n+]1ccc2ccccc2c1,"inconclusive: 5.41 µM [cytotoxic, full curve]"
15,CN1CC[C@H](CN2c3ccccc3Sc3ccccc32)C1,"inconclusive: 42.9 µM [cytotoxic, partial curve, poor fit]"
16,CCCCCCCCCCCCCC[n+]1ccc(C)cc1,"inconclusive: 4.29 µM [cytotoxic, full curve]"
17,CC(C)(C)NC(=O)[C@H]1CC[C@H]2[C@@H]3CC[C@H]4NC(=O)C=C[C@]4(C)[C@H]3CC[C@]12C,inactive
18,O=C1CCc2ccc(OCCCCN3CCN(c4cccc(Cl)c4Cl)CC3)cc2N1,"inconclusive: 42.9 µM [cytotoxic, partial curve, poor fit]"
19,CCOc1ccc(Cc2nccc3cc(OCC)c(OCC)cc23)cc1OCC,"inconclusive: 19.2 µM [cytotoxic, partial curve]"
20,CO[C@@]12[C@H](COC(N)=O)C3=C(C(=O)C(C)=C(N)C3=O)N1C[C@@H]1N[C@@H]12,"inconclusive: 24.1 µM [cytotoxic, partial curve]"
21,OCCN1CCN(CC/C=C2/c3ccccc3Sc3ccc(C(F)(F)F)cc32)CC1,"inconclusive: 34.1 µM [cytotoxic, single point]"
22,CC(=O)OCC1=C(C(=O)O)N2C(=O)[C@@H](NC(=O)Cc3cccs3)[C@H]2SC1,inactive
23,CCCCc1oc2ccccc2c1C(=O)c1cc(I)c(OCCN(CC)CC)c(I)c1,inactive
24,CC(C)C(=O)Oc1ccc(CO)cc1[C@H](CCN(C(C)C)C(C)C)c1ccccc1,inactive
25,CC(=O)[C@]1(O)Cc2c(O)c3c(c(O)c2[C@@H](O[C@H]2C[C@H](N)[C@H](O)[C@H](C)O2)C1)C(=O)c1ccccc1C3=O,"inconclusive: 1.92 µM [cytotoxic, full curve]"
26,Cc1cc(-n2c(=O)[nH]c(=O)n(C)c2=O)ccc1Oc1ccc(S(=O)(=O)C(F)(F)F)cc1,inactive
27,Cc1cc(C(C#N)c2ccc(Cl)cc2)c(Cl)cc1NC(=O)c1cc(I)cc(I)c1O (stereo not drawn),inactive
28,C[C@@H](c1nc(-c2ccc(C#N)cc2)cs1)[C@](O)(Cn1cncn1)c1cc(F)ccc1F,"inconclusive: 17.1 µM [cytotoxic, partial curve]"

# As entered above:
# Entry for COc1ccc2cc3[n+](cc2c1OC)CCc1cc2c(cc1-3)OCO2 under Potency: inconclusive: 19.2 µM [cytotoxic, partial curve]
# Entry for N#CC(c1ccc(Cl)cc1)c1c(Cl)cc(-n2ncc(=O)[nH]c2=O)cc1Cl (stereo not drawn) under Potency: inconclusive: 24.1 µM [cytotoxic, partial curve]
